{"source": "PubChem BioAssay AID504793 | Drosophila RNAi Screening Center | 2011", "assay": "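Genes required for cells to halt at G2/M after double-strand DNA breaks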 (primary screen)", "system": "Drosophila S2R+ cells", "reagents": "long dsRNA against Drosophila genes, about 0.25 µg dsRNA per well", "time to read-out": "4 days of dsRNA, then 4 hours of drug before read-out", "challenge": "doxorubicin 0.5 µM for 4 hours to cause double-strand breaks, in cells also given a low, harmless dose of dsRNA against nbs to sensitise the assay", "detection": "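Mitotic index as the number of phospho-histone H3-positive cells in each well following doxorubicin, given as raw counts without normalisation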", "reading the numbers": "mitotic cells: higher = more cells in mitosis, weaker G2 arrest", "hit rule": "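Genes are called active only when high mitotic counts were reproduced with independent dsRNAs and mitosis was checked for delay without damage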", "meaning of the calls": "active = confirmed in follow-up tests; inactive = not confirmed", "note": "The screen tested about 23,000 reagents; this is a random part of those that have a named target and a result. In the full data, 62 (0.27%) were called active. 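Calls come from follow-up tests whose scores are not deposited, so confirmed genes may have low counts here; counts are not normalised per plate.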 Raw values vary from plate to plate and are shown uncorrected. Entries without a mark were called inactive. A plus sign joins genes that one reagent is predicted to hit. No sequences are given here."}
{"gene": "Mrp5", "amplicon": "DRSC15597", "mitotic cells, replicate 1": 8}
{"gene": "Mrp5", "amplicon": "DRSC15598", "mitotic cells, replicate 1": 11}
{"gene": "Mrp5", "amplicon": "DRSC25669", "mitotic cells, replicate 1": 11}
{"gene": "Pglym78", "amplicon": "DRSC16787", "mitotic cells, replicate 1": 9}
{"gene": "Pglym78", "amplicon": "DRSC24626", "mitotic cells, replicate 1": 4}
{"gene": "CG31525", "amplicon": "DRSC12004", "mitotic cells, replicate 1": 9}
{"gene": "MESK2", "amplicon": "DRSC04258", "mitotic cells, replicate 1": 3}
{"gene": "MESK2", "amplicon": "DRSC28508", "mitotic cells, replicate 1": 5}
{"gene": "CG17328", "amplicon": "DRSC01927", "mitotic cells, replicate 1": 11}
{"gene": "CG17328", "amplicon": "DRSC22448", "mitotic cells, replicate 1": 15}
{"gene": "CG17328", "amplicon": "DRSC25397", "mitotic cells, replicate 1": 6}
{"gene": "CG13449", "amplicon": "DRSC09996", "mitotic cells, replicate 1": 6}
{"gene": "CG18095", "amplicon": "DRSC01948", "mitotic cells, replicate 1": 8}
{"gene": "Ns1", "amplicon": "DRSC15529", "mitotic cells, replicate 1": 7}
{"gene": "kn", "amplicon": "DRSC06196", "mitotic cells, replicate 1": 5}
{"gene": "kn", "amplicon": "DRSC07637", "mitotic cells, replicate 1": 11}
{"gene": "kn", "amplicon": "DRSC21533", "mitotic cells, replicate 1": 6}
{"gene": "kn", "amplicon": "DRSC23818", "mitotic cells, replicate 1": 2}
{"gene": "CG5382", "amplicon": "DRSC15786", "mitotic cells, replicate 1": 10}
{"gene": "CG31460", "amplicon": "DRSC14370", "mitotic cells, replicate 1": 2}

Continued (5 carried over from the part before).
{"gene": "kn", "amplicon": "DRSC07637", "mitotic cells, replicate 1": 11}
{"gene": "kn", "amplicon": "DRSC21533", "mitotic cells, replicate 1": 6}
{"gene": "kn", "amplicon": "DRSC23818", "mitotic cells, replicate 1": 2}
{"gene": "CG5382", "amplicon": "DRSC15786", "mitotic cells, replicate 1": 10}
{"gene": "CG31460", "amplicon": "DRSC14370", "mitotic cells, replicate 1": 2}
{"gene": "CG32801", "amplicon": "DRSC17964", "mitotic cells, replicate 1": 16}
{"gene": "CG32801", "amplicon": "DRSC25614", "mitotic cells, replicate 1": 5}
{"gene": "CG4984 + CG4975", "amplicon": "DRSC06907", "mitotic cells, replicate 1": 4}
{"gene": "CG4984 + CG4975", "amplicon": "DRSC06908", "mitotic cells, replicate 1": 5}
{"gene": "Desi", "amplicon": "DRSC14909", "mitotic cells, replicate 1": 3}
{"gene": "mtSSB", "amplicon": "DRSC17005", "mitotic cells, replicate 1": 3}
{"gene": "Polr2G", "amplicon": "DRSC16068", "mitotic cells, replicate 1": 15}
{"gene": "Tpc2", "amplicon": "DRSC04322", "mitotic cells, replicate 1": 2}
{"gene": "CrebB", "amplicon": "DRSC20232", "mitotic cells, replicate 1": 11}
{"gene": "CrebB", "amplicon": "DRSC23558", "mitotic cells, replicate 1": 6}
{"gene": "CG13857", "amplicon": "DRSC14707", "mitotic cells, replicate 1": 6}
{"gene": "DIP-iota", "amplicon": "DRSC02140", "mitotic cells, replicate 1": 8}
{"gene": "DIP-iota", "amplicon": "DRSC23965", "mitotic cells, replicate 1": 10}
{"gene": "Snx1", "amplicon": "DRSC00531", "mitotic cells, replicate 1": 5}
{"gene": "Pis", "amplicon": "DRSC20178", "mitotic cells, replicate 1": 8}
{"gene": "Pis", "amplicon": "DRSC29976", "mitotic cells, replicate 1": 5}
{"gene": "Jupiter", "amplicon": "DRSC15204", "mitotic cells, replicate 1": 10}
{"gene": "Jupiter", "amplicon": "DRSC15205", "mitotic cells, replicate 1": 6}
{"gene": "Jupiter", "amplicon": "DRSC15389", "mitotic cells, replicate 1": 6}
{"gene": "CG7888", "amplicon": "DRSC10926", "mitotic cells, replicate 1": 4}
{"gene": "CG15571", "amplicon": "DRSC18059", "mitotic cells, replicate 1": 13}
{"gene": "CG15571", "amplicon": "DRSC30098", "mitotic cells, replicate 1": 12}
{"gene": "Lsp2", "amplicon": "DRSC09841", "mitotic cells, replicate 1": 6}
{"gene": "Lsp2", "amplicon": "DRSC11216", "mitotic cells, replicate 1": 4}
{"gene": "Lsp2", "amplicon": "DRSC24021", "mitotic cells, replicate 1": 5}
